Results are given in words; binding and its absence hold for the method and conditions named. Binding seen in cells or lysates may run through a third protein. Some binding calls cover weakened binding; strength is not graded here.
Target: Flag-APP-C99 (UniProt P05067)
Assay: co-IP

Amino acid sequences for entries named in this document (tags omitted). Residues count along the entry.
UniProt P05067, residues 672-770: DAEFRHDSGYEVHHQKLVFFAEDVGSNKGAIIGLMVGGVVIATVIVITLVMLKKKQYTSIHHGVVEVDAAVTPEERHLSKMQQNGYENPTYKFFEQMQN
UniProt Q3TCV3: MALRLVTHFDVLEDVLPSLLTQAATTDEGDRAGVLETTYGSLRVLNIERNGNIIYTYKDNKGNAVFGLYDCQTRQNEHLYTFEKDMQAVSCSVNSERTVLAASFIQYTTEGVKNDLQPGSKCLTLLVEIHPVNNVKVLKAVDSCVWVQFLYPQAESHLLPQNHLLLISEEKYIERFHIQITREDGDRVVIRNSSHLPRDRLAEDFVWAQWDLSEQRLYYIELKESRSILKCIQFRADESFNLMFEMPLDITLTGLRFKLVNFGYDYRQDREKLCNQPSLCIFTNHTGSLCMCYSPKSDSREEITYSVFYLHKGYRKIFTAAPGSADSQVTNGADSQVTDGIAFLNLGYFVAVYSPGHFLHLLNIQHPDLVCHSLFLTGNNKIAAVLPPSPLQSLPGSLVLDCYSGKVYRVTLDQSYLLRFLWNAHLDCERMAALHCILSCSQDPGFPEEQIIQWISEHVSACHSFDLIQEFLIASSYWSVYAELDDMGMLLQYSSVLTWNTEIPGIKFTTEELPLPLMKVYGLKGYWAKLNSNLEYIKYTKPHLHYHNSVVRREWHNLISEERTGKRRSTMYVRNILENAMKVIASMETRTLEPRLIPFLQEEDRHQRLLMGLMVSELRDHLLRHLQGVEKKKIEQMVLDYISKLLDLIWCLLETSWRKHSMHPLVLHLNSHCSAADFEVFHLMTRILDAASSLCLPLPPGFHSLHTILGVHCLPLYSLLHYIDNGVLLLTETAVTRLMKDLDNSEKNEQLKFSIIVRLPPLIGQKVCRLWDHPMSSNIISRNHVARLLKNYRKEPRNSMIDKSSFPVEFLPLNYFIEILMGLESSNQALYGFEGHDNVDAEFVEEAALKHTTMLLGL

“mouse full length GSAP with HA tag (from UniProt Q3TCV3 1-858)” was tested, and the binding was “binds”.

From article doi:10.1101/2020.11.12.379313
